Laboratory results: the supplement of paper PMC6078165

Tested on: HCC1143
Test: relative JC-1 red fluorescence (viability) vs pre-drug, coculture with fibroblast (fraction); higher = more viable cancer cells
Procedure: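 JC-1 labelled TNBC cells cocultured 1:1 (1,500 cells each) with CellTrace Violet stained primary or stromal fibroblasts in 384-well plates in FluoroBrite medium, treated with one of 42 anticancer drugs at 0.1, 1, 10 or 100 uM. JC-1 red fluorescence (mitochondrial integrity in cancer cells only) was read by plate reader every 8 h for 72 h. Values are normalised to each well's pre-drug value. The stock of one drug was tenfold lower, so its dose labels may be too high.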

C=C1C[C@@H]2[C@H](CC[C@]3(C)C(=O)CC[C@@H]23)[C@@]2(C)C=CC(=O)C=C12 [Exemestane]
relative JC-1 red fluorescence
Details | 8 h | 16 h | 24 h | 32 h | 40 h | 48 h | 56 h | 64 h | 72 h
10 µM, coculture fibroblast: C12385 | 0.8707 | 0.802 | 0.7473 | 0.683 | 0.609 | 0.5751 | 0.533 | 0.486 | 0.47
10 µM, coculture fibroblast: H6013 | 0.802 | 0.724 | 0.702 | 0.708 | 0.634 | 0.626 | 0.589 | 0.564 | 0.517
10 µM, coculture fibroblast: H6019 | 0.8535 | 0.803 | 0.769 | 0.7249 | 0.6966 | 0.666 | 0.623 | 0.577 | 0.535
10 µM, coculture fibroblast: H6076 | 0.7983 | 0.792 | 0.751 | 0.695 | 0.661 | 0.644 | 0.619 | 0.601 | 0.611
10 µM, coculture fibroblast: H6231 | 0.826 | 0.924 | 0.84 | 0.632 | 0.724 | 0.673 | 0.637 | 0.584 | 0.539
10 µM, coculture fibroblast: HADF | 0.807 | 0.772 | 0.757 | 0.773 | 0.717 | 0.706 | 0.678 | 0.662 | 0.634
10 µM, coculture fibroblast: HCFa | 0.805 | 0.711 | 0.679 | 0.672 | 0.577 | 0.541 | 0.484 | 0.442 | 0.406
10 µM, coculture fibroblast: HCPF | 0.8157 | 0.854 | 0.809 | 0.679 | 0.73 | 0.694 | 0.658 | 0.613 | 0.5829
10 µM, coculture fibroblast: HHSteC | 0.8546 | 0.771 | 0.746 | 0.725 | 0.638 | 0.605 | 0.553 | 0.519 | 0.479
10 µM, coculture fibroblast: HMF | 0.8 | 0.831 | 0.783 | 0.706 | 0.701 | 0.672 | 0.619 | 0.585 | 0.559
10 µM, coculture fibroblast: HPFa | 0.9351 | 0.852 | 0.812 | 0.731 | 0.656 | 0.618 | 0.551 | 0.494 | 0.434
10 µM, coculture fibroblast: HUF | 0.884 | 0.814 | 0.751 | 0.682 | 0.63 | 0.5925 | 0.526 | 0.476 | 0.44
10 µM, coculture fibroblast: Hs5 | 0.861 | 0.933 | 0.8867 | 0.82394 | 0.776 | 0.732 | 0.686 | 0.642 | 0.622
10 µM, coculture fibroblast: Hs27A | 0.741 | 0.6721 | 0.633 | 0.653 | 0.537 | 0.521 | 0.4889 | 0.4612 | 0.457
10 µM, coculture fibroblast: Hs343T | 0.8381 | 0.929 | 0.876 | 0.751 | 0.7759 | 0.7209 | 0.656 | 0.621 | 0.576
10 µM, coculture fibroblast: WS1 | 0.858 | 0.773 | 0.698 | 0.6203 | 0.552 | 0.5013 | 0.45 | 0.398 | 0.37
100 µM, coculture fibroblast: C12385 | 0.842 | 0.745 | 0.692 | 0.64 | 0.585 | 0.549 | 0.519 | 0.484 | 0.468
100 µM, coculture fibroblast: H6013 | 0.746 | 0.663 | 0.633 | 0.628 | 0.568 | 0.557 | 0.53 | 0.518 | 0.518
100 µM, coculture fibroblast: H6019 | 0.8051 | 0.73 | 0.693 | 0.631 | 0.594 | 0.574 | 0.535 | 0.504 | 0.478
100 µM, coculture fibroblast: H6076 | 0.8138 | 0.786 | 0.779 | 0.781 | 0.747 | 0.751 | 0.737 | 0.73 | 0.749
100 µM, coculture fibroblast: H6231 | 0.8145 | 0.8434 | 0.78 | 0.606 | 0.683 | 0.641 | 0.588 | 0.538 | 0.506
100 µM, coculture fibroblast: HADF | 0.777 | 0.704 | 0.675 | 0.696 | 0.607 | 0.583 | 0.568 | 0.547 | 0.571
100 µM, coculture fibroblast: HCFa | 0.785 | 0.6904 | 0.647 | 0.657 | 0.559 | 0.5353 | 0.498 | 0.4719 | 0.485
100 µM, coculture fibroblast: HCPF | 0.8196 | 0.827 | 0.813 | 0.704 | 0.76 | 0.734 | 0.704 | 0.672 | 0.656
100 µM, coculture fibroblast: HHSteC | 0.843 | 0.796 | 0.763 | 0.745 | 0.677 | 0.658 | 0.621 | 0.591 | 0.56
100 µM, coculture fibroblast: HMF | 0.792 | 0.775 | 0.73 | 0.685 | 0.657 | 0.649 | 0.608 | 0.589 | 0.576
100 µM, coculture fibroblast: HPFa | 0.881 | 0.8 | 0.778 | 0.713 | 0.656 | 0.628 | 0.5637 | 0.517 | 0.482
100 µM, coculture fibroblast: HUF | 0.8698 | 0.805 | 0.753 | 0.706 | 0.669 | 0.638 | 0.577 | 0.527 | 0.494
100 µM, coculture fibroblast: Hs5 | 0.83783 | 0.856 | 0.8116 | 0.753 | 0.682 | 0.6346 | 0.584 | 0.554 | 0.541
100 µM, coculture fibroblast: Hs27A | 0.732 | 0.636 | 0.593 | 0.625 | 0.4983 | 0.4756 | 0.4577 | 0.437 | 0.478
100 µM, coculture fibroblast: Hs343T | 0.831 | 0.8386 | 0.801 | 0.732 | 0.706 | 0.668 | 0.61 | 0.585 | 0.554
100 µM, coculture fibroblast: WS1 | 0.84 | 0.757 | 0.711 | 0.651 | 0.617 | 0.588 | 0.55 | 0.508 | 0.493

The reference is the same well before dosing, and untreated signal decays as well.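 Fibroblast labels name human fibroblasts: mostly primary ones from tissues such as uterus (C12385, HUF), lung (H6013), bone (Hs27A), adrenal (HADF) and skin (WS1), plus mammary HMF and breast cancer-associated Hs343T. The cancer cells are basal-like or mesenchymal-like triple-negative breast cancer lines. The paper calls a changed response a hit when it shifts by more than 3x the replicate standard deviation. The tissue of the other fibroblasts is not given here.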
